According to article PMC8102640:
Results are given in words; binding and its absence hold for the method and conditions named. In cells and extracts the contact can be indirect. Some entries that bind do so weakly or less than the wild type. Where a sequence is shown, tags or fusion partners need not be part of it.

Amino acid sequences for entries named in this document (tags omitted).
UniProt Q96CV9: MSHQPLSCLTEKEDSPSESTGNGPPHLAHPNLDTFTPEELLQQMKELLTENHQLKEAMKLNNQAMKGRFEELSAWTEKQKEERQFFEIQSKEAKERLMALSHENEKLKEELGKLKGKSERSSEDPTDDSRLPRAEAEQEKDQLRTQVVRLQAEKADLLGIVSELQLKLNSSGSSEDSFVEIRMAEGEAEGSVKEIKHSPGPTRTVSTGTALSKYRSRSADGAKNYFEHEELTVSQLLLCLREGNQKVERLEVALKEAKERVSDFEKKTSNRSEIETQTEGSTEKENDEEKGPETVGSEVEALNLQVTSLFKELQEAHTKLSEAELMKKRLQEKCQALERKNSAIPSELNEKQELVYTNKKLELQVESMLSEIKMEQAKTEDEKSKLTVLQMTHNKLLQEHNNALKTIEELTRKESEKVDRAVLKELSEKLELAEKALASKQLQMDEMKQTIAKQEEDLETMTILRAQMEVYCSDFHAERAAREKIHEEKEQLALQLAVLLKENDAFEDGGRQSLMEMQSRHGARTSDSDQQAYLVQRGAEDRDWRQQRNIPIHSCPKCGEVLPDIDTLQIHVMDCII

Target: T1, FLAG-tagged NRF2 (nuclear factor erythroid 2-related factor 2) (UniProt Q16236)
T1 sequence: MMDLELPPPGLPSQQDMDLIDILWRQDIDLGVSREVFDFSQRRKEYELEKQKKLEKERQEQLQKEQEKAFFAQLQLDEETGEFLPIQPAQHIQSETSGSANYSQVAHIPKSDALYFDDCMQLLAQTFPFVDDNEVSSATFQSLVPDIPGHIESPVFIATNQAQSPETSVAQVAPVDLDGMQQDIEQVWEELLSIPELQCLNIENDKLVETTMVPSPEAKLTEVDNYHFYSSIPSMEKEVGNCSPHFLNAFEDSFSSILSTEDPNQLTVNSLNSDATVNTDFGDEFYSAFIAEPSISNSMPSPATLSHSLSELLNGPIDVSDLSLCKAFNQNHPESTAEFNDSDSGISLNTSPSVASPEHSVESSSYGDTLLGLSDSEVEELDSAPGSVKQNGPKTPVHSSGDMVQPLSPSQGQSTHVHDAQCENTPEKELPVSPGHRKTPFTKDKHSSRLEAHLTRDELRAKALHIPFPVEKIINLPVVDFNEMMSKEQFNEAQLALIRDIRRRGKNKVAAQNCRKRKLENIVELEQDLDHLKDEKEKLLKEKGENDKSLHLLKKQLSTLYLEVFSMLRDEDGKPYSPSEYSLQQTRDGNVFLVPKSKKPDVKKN
Test: co-IP; HEK293T cells co-transfected with FLAG-NRF2 and His-OPTN plasmids (2000 ng each per well), lysed in NP-40 buffer; lysate incubated with Anti-Flag M2 Affinity Gel for 24 h, washed five times with NP-40 buffer, immunoblot

binding: binds
Substance: His-tagged OPTN (optineurin) (from UniProt Q96CV9 1-577)
